Assay results as given in patent publication US20210115146A1.
Results are given in words; binding and its absence hold for the method and conditions named. Some entries that bind do so weakly or less than the wild type. Sequences can lack the tags named with a protein. Each block holds one binder with its values, some of them ahead of it.

Target: Macaca fascicularis EGFR (cell surface) (Macaca fascicularis)
Experiment: FACS, FITC anti-human IgG

binding: binds
B1: W5626-2C10-z5 (humanized VHH of W5626-2C10 further comprising a human Fc of IgG1 isotype) (Fc fusion, not shown: a dimerising Fc or GST)
chain: AVQLVESGGGLVQPGGSLTLSCAASGRTFSSYAMGWFRQAPGKEREFVAADRWSGGNTRYADSVKGRFTISRDNAKNTLYLQMNSLRAEDTAVYYCAATYLSSDYEWGVPPKAYDYDYWGQGTLVTVSS

binding: binds
B2: W5626-2C2-z22 (humanized VHH of W5626-2C2 further comprising a human Fc of IgG1 isotype) (Fc fusion, not shown: a dimerising Fc or GST)
chain: EVQLVESGGGLVQPGGSLRLSCAASGRTHSNYVMGWFRQAPGQEREFVAGISRTYGNTYYRDSVEGRFTISRDNSKNTLYLQMNSLRAEDTAVYYCAADPTRSEVILTTSHRYVYWGQGTLVTVSS
